Test results reported in PMC6050252.
Results are given in words; binding and its absence hold for the method and conditions named. In cells and extracts the contact can be indirect. A yes stands for co-enrichment or nearness to the bait. Other partners may have been found.

T1: CDC50A (TMEM30A), mouse, endogenous (mouse (endogenous in mouse tissues)) (UniProt Q8VEK0)
T1 sequence: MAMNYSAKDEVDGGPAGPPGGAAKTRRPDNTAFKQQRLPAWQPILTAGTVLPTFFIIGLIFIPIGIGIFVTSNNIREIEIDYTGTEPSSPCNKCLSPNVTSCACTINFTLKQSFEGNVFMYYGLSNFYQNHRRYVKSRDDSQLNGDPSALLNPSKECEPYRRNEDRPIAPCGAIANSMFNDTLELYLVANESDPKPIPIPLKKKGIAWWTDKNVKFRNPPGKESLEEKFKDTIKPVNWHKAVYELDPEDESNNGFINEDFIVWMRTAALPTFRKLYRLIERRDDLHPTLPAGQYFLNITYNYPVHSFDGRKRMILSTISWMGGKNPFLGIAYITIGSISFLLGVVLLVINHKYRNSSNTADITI

B1: ATP8A2, mouse, endogenous (protein, UniProt P98200 1-1148)
chain: MSRATSVGDQLEAPARIIYLNQSHLNKFCDNRISTAKYSVLTFLPRFLYEQIRRAANAFFLFIALLQQIPDVSPTGRYTTLVPLVIILTIAGIKEIIEDFKRHKADNAVNKKKTIVLRNGMWHTIMWKEVAVGDIVKVLNGQYLPADMVLFSSSEPQGMCYVETANLDGETNLKIRQGLSHTTDMQTRDVLMKLSGRIECEGPNRHLYDFTGNLHLDGKSSVALGPDQILLRGTQLRNTQWVFGVVVYTGHDSKLMQNSTKAPLKRSNVEKVTNVQILVLFGILLVMALVSSVGALFWNGSHGGKSWYIKKMDTNSDNFGYNLLTFIILYNNLIPISLLVTLEVVKYTQALFINWDMDMYYIENDTPAMARTSNLNEELGQVKYLFSDKTGTLTCNIMNFKKCSIAGVTYGHFPELAREQSSDDFCRMTSCTNDSCDFNDPRLLKNIEDQHPTAPCIQEFLTLLAVCHTVVPEKDGDEIIYQASSPDEAALVKGAKKLGFVFTGRTPYSVIIEAMGQEQTFGILNVLEFSSDRKRMSVIVRLPSGQLRLYCKGADNVIFERLSKDSKYMEETLCHLEYFATEGLRTLCVAYADLSENEYEEWLKVYQEASIILKDRAQRLEECYEIIEKNLLLLGATAIEDRLQAGVPETIATLLKAEIKIWVLTGDKQETAINIGYSCRLVSQNMALILLKEDSLDATRAAITQHCTDLGNLLGKENDVALIIDGHTLKYALSFEVRRSFLDLALSCKAVICCRVSPLQKSEIVDVVKKRVKAITLAIGDGANDVGMIQTAHVGVGISGNEGMQATNNSDYAIAQFSYLEKLLLVHGAWSYNRVTKCILYCFYKNVVLYIIELWFAFVNGFSGQILFERWCIGLYNVIFTALPPFTLGIFERSCTQESMLRFPQLYRITQNAEGFNTKVFWGHCINALVHSLILFWVPMKALEHDTPVTSGHATDYLFVGNIVYTYVVVTVCLKAGLETTAWTKFSHLAVWGSMLIWLVFFGVYSTIWPTIPIAPDMKGQATMVLSSAYFWLGLFLVPTACLIEDVAWRAAKHTCKKTLLEEVQELETKSRVMGKAMLRDSNGKRMNERDRLIKRLSRKTPPTLFRTGSIQQCVSHGYAFSQEEHGAVTQEEIVRAYDTTKENSRKK
B2: ATP11A, mouse, endogenous (protein, UniProt P98197 1-1187)
chain: MDCSLLRTLVRRYCAGEENWVDSRTIYVGHKEPPPGAEAYIPQRYPDNRIVSSKYTFWNFIPKNLFEQFRRIANFYFLIIFLVQLIIDTPTSPVTSGLPLFFVITVTAIKQGYEDWLRHKADNAMNQCPVHFIQHGKLVRKQSRKLRVGDIVMVKEDETFPCDLIFLSSNRADGTCHVTTASLDGESSHKTHYAVQDTKGFHTEADVDSLHATIECEQPQPDLYKFVGRINVYNDLNDPVVRPLGSENLLLRGATLKNTEKIFGVAIYTGMETKMALNYQSKSQKRSAVEKSMNTFLIVYLCILVSKALINTVLKYVWQSEPFRDEPWYNEKTESERQRNLFLRAFTDFLAFMVLFNYIIPVSMYVTVEMQKFLGSYFITWDEDMFDEEMGEGPLVNTSDLNEELGQVEYIFTDKTGTLTENNMAFKECCIEGHVYVPHVICNGQVLPDSSGIDMIDSSPGVCGREREELFFRAICLCHTVQVKDDHCGDDVDGPQKSPDAKSCVYISSSPDEVALVEGVQRLGFTYLRLKDNYMEILNRENDIERFELLEVLTFDSVRRRMSVIVKSTTGEIYLFCKGADSSIFPRVIEGKVDQVRSRVERNAVEGLRTLCVAYKRLEPEQYEDACRLLQSAKVALQDREKKLAEAYEQIEKDLVLLGATAVEDRLQEKAADTIEALQKAGIKVWVLTGDKMETASATCYACKLFRRSTQLLELTTKKLEEQSLHDVLFDLSKTVLRCSGSMTRDSFSGLSTDMHDYGLIIDGAALSLIMKPREDGSSSGNYRELFLEICRNCSAVLCCRMAPLQKAQIVKLIKFSKEHPITLAIGDGANDVSMILEAHVGIGVIGKEGRQAARNSDYAIPKFKHLKKMLLVHGHFYYIRISELVQYFFYKNVCFIFPQFLYQFFCGFSQQTLYDTAYLTLYNISFTSLPILLYSLMEQHVGIDVLKRDPTLYRDIAKNALLRWRVFIYWTFLGVFDALVFFFGAYFIFENTTVTINGQMFGNWTFGTLVFTVMVLTVTLKLALDTHYWTWINHFVIWGSLLFYIAFSLLWGGVIWPFLSYQRMYYVFISMLSSGPAWLGIILLVTVGLLPDVLKKVLCRQLWPTATERTQNIQHQDSISEFTPLASLPSWGAQGSRLLAAQCSSPSGRVVCSRWESEECPVLPLHPGLPHKARYGCCRSSLEMPT
B3: ATP11B, mouse, endogenous (protein, UniProt Q6DFW5 1-1175)
chain: MWRWVRQQLGFDPPHQSDTRTIYIANRFPQNGLYTPQKFIDNRIISSKYTIWNFVPKNLFEQFRRVANFYFLIIFLVQLMIDTPTSPITSGLPLFFVITVTAIKQGYEDWLRHNSDNEVNGAPVYVVRSGGLVKTRSKNIRVGDIVRIAKDEIFPADLVLLSSDRLDGSCHVTTASLDGETNLKTHVSVPETAVLQTVANLDSLIAVIECQQPEADLYRFMGRMIITQQMEEIVRPLGPESLLLRGARLKNTKEIFGVAVYTGMETKMALNYKSKSQKRSAVEKSMNTFLIIYLIILISEAIISTILKYTWQAEEKWDEPWYNQKTEHQRNSSKILRFISDFLAFLVLYNFIIPISLYVTVEMQKFLGSFFIGWDLDLYHEESDQKAQVNTSDLNEELGQVEYVFTDKTGTLTENEMQFRECSINGLKYQEINGKLVPEGPSPDSTEGEVPFLGSLSHLSNSAHLTATSLRTSPESETELIKEHDLFFKAVSLCHTVQISNVQTDGIGDGPWQPNLAPAQLEYYASSPDEKALVEAAARAGIIFVGISEETMEVKVLGRLERYKLLHILEFDSDRRRMSVIVQAPSGEKLLFAKGAESSILPKCIGGEIAKTRIHVDEFALKGLRTLCIAYRQFTAKEYEDVDRRLFEARTALQHREEKLADAFQYIEKDLILLGATAVEDRLQDKVRETIEALRMAGIKVWVLTGDKHETAVSVSLSCGHFHRTMNILELINQKSDSGCAEQLRQLARRITEDHVIQHGLVVDGTSLSLALREHEKLFMEVCRNCSAVLCCRMAPLQKAKVIRLIKISPEKPITLAVGDGANDVSMIQEAHVGIGIMGKEGRQAARNSDYAIARFKFLSKLLFVHGHFYYIRIATLVQYFFYKNVCFITPQFLYQFYCLFSQQTLYDSVYLTLYNICFTSLPVLIYSLVEQHIDPHVLQSKPTLYRDISKNGLLSIKAFLYWTVLGFSHAFIFFFGSYFLVGKDTSLLGNGQMFGNWTFGTLVFTVMVITVTVKMALETHFWTWINHLVTWGSIIFYFIFSLFYGGILWPFLGSQNMYFVFIQLLSSGSAWFAILLMVVTCLFIDVVKKVFDRQLHPTSTEKAQLAEAHSSVKCLDSVCCFPGETPCASVGRMLERVIGRCSPNHISRLWNASDPFYTNDRSILTLSPMDSSTC
B4: ATP11C, mouse, endogenous (protein, UniProt Q9QZW0 1-1129)
chain: MFRRTLNRLCAGEEKRVGTRTVFVGNHPISGTEPYIAQRFCDNRIVSSKYTLWNFLPKNLFEQFRRIANFYFLIIFLVQVTVDTPTSPVTSGLPLFFVITVTAIKQGYEDWLRHRADNEVNKSAVYIIENAKRVRKESEKIKVGDVVEVQANETFPCDLILLSSCTTDGTCYVTTASLDGESNCKTHYAVRDTIALCTAESIDNLRATIECEQPQPDLYRFVGRISIYSNSIEAVARSLGPENLLLKGATLKNTKKIYGVAVYTGMETKMALNYQGKSQKCSAVEKSINAFLIVYLFILLTKAAVCTTLKYVWQSSPYNDEPWYNQKTQKERETFQVLKMFTDFLSFMVLFNFIIPVSMYVTVEMQKFLGSFFISWDKDFFDEEINEGALVNTSDLNEELGQVDYVFTDKTGTLTENSMEFIECCIDGHKYKGTTQEVDGLSQTDGPLAYFDKADKNREALFLRALCLCHTVEMKTNDDVDGPVEGAGFTYISSSPDEIALVKGAKRFGFTFLGNQNGYIRVENQRKEIEEYELLHTLNFDSVRRRMSVIVRTQKGDILLFCKGADSSIFPRVHSHQIELTKDHVERNAMDGYRTLCVAFKEIPPDDFERINAQLVEAKMALQDREEKLEKVFDEIETNMNLIGATAVEDKLQDQAAETIEALHAAGLKVWVLTGDKMETAKSTCYACRLFQTNTELLELTTKTIEESERKEDRLHELLIEYRKKLLHEFPKSTRSLKKAWTEHQEYGLIIDGSTLSLILNSSQDCSSNNYKSIFLQICMKCTAVLCCRMAPLQKAQIVRMVKNLKGSPITLSIGDGANDVSMILESHVGIGIKGKEGRQAARNSDYSVPKFKHLKKLLLVHGHLYYVRIAHLVQYFFYKNLCFILPQFLYQFFCGFSQQPLYDAAYLTMYNICFTSLPILAYSLLEQHINIDTLTADPRLYMKITGNAMLQLGPFLHWTFLAAFEGTVFFFGTYFLFQTSSLEDNGKIYGNWTFGTIVFTVLVFTVTLKLALDTRFWTWINHFVIWGSLAFYVFFSFFWGGIIWPFLKQQRMYFVFAQMLCSVSTWLAIILLIFISLFPEILLIVVKNVRRRSARRNLSCRRASDSLSARPSVRPLLLRTFSDESNIL

Molecular target: T1, CDC50A (TMEM30A), mouse, endogenous (mouse (endogenous in mouse tissues))
Assay: affinity purification with mass spectrometry; CHAPS-solubilised membranes of mouse retina, liver, brain, testes, kidney (~20 mg protein) on Cdc50-7F4-Sepharose, 4 °C, 1 h; washed in 10 mM CHAPS, 40 mM Tris pH 7.4, 150 mM NaCl, 5 mM MgCl2, 1 mM DTT; eluted with 7F4 peptide; in-gel (retina) or FASP trypsin digestion, MS/MS

Binder	binding
B1	binds
B2	binds
B3	binds
B4	binds
